Read-outs that look alike come from different tables or passages of the source. Results are given in words; binding and its absence hold for the method and conditions named. For some of these results: In cells and extracts the contact can be indirect. Some entries that bind do so weakly or less than the wild type. Each block holds one molecule with its values, some of them ahead of it.
Columns and labels:
[1] = target: VCP-D592AbK (VCP with AbK incorporated at D592, C-terminal 12X-His and 3X-FLAG tags) (human) (UniProt P55072); assay: cross-linking
[2] = target: VCP-L278AbK (VCP with AbK incorporated at L278, C-terminal 12X-His and 3X-FLAG tags) (human) (UniProt P55072); assay: cross-linking
[3] = target: VCP-D592AbK (VCP with AbK incorporated at D592, C-terminal 12X-His and 3X-FLAG tags) (human) (UniProt P55072); assay: cross-linking; remark: listed apart in the source
[4] = target: VCP-L278AbK (VCP with AbK incorporated at L278, C-terminal 12X-His and 3X-FLAG tags) (human) (UniProt P55072); assay: cross-linking; remark: listed apart in the source
[5] = target: VCPIP1 ΔUBX-L (aa 1-743) (human) (UniProt Q96JH7); assay: mass photometry

By UniProt entry, the sequences of proteins in these tests, tags left out. Where a name states a change or a piece, a line headed by the entry shows the natural chain unless it says otherwise. Chains listed by the source or under a name are the forms on record and can include a tag or linker.
VCP-D592AbK (VCP with AbK incorporated at D592, C-terminal 12X-His and 3X-FLAG tags) (P55072, form named): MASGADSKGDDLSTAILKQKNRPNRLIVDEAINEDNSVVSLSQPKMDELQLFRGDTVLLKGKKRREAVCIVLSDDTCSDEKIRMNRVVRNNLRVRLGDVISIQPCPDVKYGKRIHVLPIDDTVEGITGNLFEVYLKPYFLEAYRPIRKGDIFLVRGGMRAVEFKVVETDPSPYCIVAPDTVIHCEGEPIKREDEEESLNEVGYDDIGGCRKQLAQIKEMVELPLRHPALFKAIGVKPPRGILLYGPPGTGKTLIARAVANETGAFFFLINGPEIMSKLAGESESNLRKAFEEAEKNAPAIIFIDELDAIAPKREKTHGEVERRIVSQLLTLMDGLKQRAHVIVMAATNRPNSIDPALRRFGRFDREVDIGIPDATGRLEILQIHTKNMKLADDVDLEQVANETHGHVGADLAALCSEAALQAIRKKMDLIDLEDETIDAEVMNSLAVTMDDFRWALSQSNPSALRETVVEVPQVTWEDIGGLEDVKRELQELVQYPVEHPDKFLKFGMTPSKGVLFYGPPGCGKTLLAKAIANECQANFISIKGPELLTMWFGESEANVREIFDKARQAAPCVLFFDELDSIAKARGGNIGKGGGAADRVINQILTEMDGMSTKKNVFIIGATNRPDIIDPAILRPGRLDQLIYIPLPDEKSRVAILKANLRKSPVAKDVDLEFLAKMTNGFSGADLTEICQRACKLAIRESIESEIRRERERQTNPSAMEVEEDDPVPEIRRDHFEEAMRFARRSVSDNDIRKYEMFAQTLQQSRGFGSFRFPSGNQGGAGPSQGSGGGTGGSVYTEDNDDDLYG
VCP-L278AbK (VCP with AbK incorporated at L278, C-terminal 12X-His and 3X-FLAG tags) (P55072, form named): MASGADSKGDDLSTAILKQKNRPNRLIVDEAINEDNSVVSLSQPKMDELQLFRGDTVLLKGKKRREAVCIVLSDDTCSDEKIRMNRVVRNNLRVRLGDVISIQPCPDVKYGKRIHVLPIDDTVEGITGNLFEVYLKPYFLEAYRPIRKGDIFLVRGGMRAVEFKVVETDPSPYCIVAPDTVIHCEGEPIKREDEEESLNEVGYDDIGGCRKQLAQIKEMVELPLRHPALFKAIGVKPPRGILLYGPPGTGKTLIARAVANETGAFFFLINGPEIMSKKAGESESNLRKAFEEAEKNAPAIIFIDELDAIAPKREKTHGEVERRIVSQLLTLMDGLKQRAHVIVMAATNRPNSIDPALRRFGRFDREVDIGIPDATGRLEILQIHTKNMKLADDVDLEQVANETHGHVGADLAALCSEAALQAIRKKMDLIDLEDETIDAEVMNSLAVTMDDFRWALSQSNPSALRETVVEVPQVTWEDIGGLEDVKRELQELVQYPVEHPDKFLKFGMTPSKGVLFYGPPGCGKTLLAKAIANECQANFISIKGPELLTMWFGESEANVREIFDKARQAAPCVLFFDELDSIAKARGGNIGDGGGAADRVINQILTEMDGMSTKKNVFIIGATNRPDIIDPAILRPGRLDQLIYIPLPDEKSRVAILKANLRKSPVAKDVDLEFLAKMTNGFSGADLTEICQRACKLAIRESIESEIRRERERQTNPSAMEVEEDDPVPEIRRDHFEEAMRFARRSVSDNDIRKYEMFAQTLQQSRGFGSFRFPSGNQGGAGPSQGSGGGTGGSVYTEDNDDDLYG
UniProt Q70CQ2: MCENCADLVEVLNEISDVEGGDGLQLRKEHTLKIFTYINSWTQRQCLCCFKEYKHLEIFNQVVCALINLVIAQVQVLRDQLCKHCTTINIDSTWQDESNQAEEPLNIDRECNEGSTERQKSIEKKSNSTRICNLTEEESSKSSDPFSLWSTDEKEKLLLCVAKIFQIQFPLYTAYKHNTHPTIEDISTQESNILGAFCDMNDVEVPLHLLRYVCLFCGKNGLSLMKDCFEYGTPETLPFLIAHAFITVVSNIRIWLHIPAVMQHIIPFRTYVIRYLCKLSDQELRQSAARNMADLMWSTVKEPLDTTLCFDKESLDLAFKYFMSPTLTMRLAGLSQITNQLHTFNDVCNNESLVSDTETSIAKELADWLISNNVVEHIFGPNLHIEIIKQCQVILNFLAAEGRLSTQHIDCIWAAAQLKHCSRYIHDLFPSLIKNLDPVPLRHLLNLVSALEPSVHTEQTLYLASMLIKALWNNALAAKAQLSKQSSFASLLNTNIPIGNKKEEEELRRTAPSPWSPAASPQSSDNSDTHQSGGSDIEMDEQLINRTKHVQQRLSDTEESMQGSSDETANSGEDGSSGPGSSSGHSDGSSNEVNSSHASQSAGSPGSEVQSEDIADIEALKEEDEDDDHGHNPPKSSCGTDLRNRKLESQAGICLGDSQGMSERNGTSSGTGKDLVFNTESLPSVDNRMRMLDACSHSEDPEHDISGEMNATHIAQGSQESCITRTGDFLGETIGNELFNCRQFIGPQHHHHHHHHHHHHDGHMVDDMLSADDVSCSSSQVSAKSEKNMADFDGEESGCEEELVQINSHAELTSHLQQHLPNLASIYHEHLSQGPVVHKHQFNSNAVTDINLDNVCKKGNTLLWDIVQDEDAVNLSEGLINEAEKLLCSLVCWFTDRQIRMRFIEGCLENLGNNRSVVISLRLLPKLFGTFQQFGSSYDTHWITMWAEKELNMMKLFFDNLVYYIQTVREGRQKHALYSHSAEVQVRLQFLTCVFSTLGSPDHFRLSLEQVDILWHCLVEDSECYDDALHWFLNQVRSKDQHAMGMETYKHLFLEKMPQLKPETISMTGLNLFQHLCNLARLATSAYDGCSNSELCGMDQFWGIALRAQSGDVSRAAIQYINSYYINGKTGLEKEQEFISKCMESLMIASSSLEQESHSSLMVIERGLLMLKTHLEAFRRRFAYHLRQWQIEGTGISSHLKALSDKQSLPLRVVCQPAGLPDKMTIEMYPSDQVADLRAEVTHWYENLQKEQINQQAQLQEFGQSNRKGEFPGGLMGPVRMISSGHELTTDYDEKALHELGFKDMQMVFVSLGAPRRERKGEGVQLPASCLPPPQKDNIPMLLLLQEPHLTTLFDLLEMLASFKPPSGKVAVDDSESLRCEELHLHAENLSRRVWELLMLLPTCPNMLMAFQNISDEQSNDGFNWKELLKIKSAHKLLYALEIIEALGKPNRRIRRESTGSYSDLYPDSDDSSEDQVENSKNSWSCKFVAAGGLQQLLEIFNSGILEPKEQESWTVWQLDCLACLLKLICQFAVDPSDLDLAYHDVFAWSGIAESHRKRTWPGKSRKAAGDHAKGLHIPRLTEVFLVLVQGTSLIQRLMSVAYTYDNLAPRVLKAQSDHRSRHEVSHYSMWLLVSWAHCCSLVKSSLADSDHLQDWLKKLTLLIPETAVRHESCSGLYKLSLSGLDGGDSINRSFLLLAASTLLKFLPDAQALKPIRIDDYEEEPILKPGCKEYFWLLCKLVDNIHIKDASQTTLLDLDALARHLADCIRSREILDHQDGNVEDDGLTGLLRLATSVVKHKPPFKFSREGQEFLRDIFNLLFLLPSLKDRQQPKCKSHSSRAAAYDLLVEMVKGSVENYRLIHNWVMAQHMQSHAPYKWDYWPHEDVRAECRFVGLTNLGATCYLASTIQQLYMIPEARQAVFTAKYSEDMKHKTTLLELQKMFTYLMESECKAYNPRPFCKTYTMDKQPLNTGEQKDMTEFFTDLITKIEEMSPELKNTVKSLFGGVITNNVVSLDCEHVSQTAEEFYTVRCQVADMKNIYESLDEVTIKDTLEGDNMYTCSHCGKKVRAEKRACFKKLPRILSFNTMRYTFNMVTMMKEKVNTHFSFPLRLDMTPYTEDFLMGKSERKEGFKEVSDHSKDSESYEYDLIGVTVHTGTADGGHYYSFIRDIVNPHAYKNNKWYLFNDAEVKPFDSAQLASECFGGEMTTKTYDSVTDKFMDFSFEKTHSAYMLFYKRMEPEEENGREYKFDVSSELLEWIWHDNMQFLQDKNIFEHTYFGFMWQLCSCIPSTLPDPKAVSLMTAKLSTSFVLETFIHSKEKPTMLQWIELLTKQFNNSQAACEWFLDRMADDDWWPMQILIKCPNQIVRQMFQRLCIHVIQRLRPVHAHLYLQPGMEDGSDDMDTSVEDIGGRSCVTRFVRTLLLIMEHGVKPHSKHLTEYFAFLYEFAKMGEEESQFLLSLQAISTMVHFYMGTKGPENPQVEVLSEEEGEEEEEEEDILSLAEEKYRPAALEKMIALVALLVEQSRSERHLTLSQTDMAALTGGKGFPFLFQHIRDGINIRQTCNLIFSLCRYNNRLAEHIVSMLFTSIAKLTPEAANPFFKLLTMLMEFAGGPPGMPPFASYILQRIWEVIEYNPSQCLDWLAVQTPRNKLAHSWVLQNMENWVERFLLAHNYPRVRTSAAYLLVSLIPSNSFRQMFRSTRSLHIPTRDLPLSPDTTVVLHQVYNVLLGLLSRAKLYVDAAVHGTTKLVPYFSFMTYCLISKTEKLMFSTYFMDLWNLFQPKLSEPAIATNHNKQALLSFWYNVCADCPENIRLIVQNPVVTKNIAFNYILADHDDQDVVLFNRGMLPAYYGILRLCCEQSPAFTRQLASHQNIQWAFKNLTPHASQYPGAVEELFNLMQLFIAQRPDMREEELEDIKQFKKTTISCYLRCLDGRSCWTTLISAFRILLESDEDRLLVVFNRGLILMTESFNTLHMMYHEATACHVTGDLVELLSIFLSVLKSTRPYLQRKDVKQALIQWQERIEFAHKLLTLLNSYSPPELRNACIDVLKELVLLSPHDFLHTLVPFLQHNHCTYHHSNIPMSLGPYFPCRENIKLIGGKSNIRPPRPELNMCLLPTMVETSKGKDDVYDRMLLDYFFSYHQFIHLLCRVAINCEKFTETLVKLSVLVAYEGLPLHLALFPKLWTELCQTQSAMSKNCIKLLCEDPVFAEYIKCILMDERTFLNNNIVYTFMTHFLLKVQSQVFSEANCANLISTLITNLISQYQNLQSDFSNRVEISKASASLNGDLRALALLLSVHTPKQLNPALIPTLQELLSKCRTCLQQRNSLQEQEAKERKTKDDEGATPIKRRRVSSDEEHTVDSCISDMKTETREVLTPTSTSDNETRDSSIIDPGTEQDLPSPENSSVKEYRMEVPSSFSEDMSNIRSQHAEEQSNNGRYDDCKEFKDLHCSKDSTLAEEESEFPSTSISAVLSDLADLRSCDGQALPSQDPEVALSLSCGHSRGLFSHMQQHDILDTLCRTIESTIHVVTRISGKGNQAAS
UniProt P54252: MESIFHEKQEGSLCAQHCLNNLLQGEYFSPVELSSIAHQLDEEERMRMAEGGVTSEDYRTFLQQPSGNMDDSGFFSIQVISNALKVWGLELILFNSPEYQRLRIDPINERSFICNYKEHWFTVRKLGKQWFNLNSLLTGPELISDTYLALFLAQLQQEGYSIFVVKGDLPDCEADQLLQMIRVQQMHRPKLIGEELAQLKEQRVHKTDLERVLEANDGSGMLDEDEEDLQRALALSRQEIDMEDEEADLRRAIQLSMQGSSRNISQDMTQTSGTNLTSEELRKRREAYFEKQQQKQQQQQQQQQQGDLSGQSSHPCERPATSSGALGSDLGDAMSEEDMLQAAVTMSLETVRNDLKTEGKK

Molecule: UBP34 (from UniProt Q70CQ2 1-3546) (enzyme)
binding [1]: binds

B2: UBP19 (enzyme, UniProt O94966 1-1318)
chain: MSGGASATGPRRGPPGLEDTTSKKKQKDRANQESKDGDPRKETGSRYVAQAGLEPLASGDPSASASHAAGITGSRHRTRLFFPSSSGSASTPQEEQTKEGACEDPHDLLATPTPELLLDWRQSAEEVIVKLRVGVGPLQLEDVDAAFTDTDCVVRFAGGQQWGGVFYAEIKSSCAKVQTRKGSLLHLTLPKKVPMLTWPSLLVEADEQLCIPPLNSQTCLLGSEENLAPLAGEKAVPPGNDPVSPAMVRSRNPGKDDCAKEEMAVAADAATLVDEPESMVNLAFVKNDSYEKGPDSVVVHVYVKEICRDTSRVLFREQDFTLIFQTRDGNFLRLHPGCGPHTTFRWQVKLRNLIEPEQCTFCFTASRIDICLRKRQSQRWGGLEAPAARVGGAKVAVPTGPTPLDSTPPGGAPHPLTGQEEARAVEKDKSKARSEDTGLDSVATRTPMEHVTPKPETHLASPKPTCMVPPMPHSPVSGDSVEEEEEEEKKVCLPGFTGLVNLGNTCFMNSVIQSLSNTRELRDFFHDRSFEAEINYNNPLGTGGRLAIGFAVLLRALWKGTHHAFQPSKLKAIVASKASQFTGYAQHDAQEFMAFLLDGLHEDLNRIQNKPYTETVDSDGRPDEVVAEEAWQRHKMRNDSFIVDLFQGQYKSKLVCPVCAKVSITFDPFLYLPVPLPQKQKVLPVFYFAREPHSKPIKFLVSVSKENSTASEVLDSLSQSVHVKPENLRLAEVIKNRFHRVFLPSHSLDTVSPSDTLLCFELLSSELAKERVVVLEVQQRPQVPSVPISKCAACQRKQQSEDEKLKRCTRCYRVGYCNQLCQKTHWPDHKGLCRPENIGYPFLVSVPASRLTYARLAQLLEGYARYSVSVFQPPFQPGRMALESQSPGCTTLLSTGSLEAGDSERDPIQPPELQLVTPMAEGDTGLPRVWAAPDRGPVPSTSGISSEMLASGPIEVGSLPAGERVSRPEAAVPGYQHPSEAMNAHTPQFFIYKIDSSNREQRLEDKGDTPLELGDDCSLALVWRNNERLQEFVLVASKELECAEDPGSAGEAARAGHFTLDQCLNLFTRPEVLAPEEAWYCPQCKQHREASKQLLLWRLPNVLIVQLKRFSFRSFIWRDKINDLVEFPVRNLDLSKFCIGQKEEQLPSYDLYAVINHYGGMIGGHYTACARLPNDRSSQRSDVGWRLFDDSTVTTVDESQVVTRYAYVLFYRRRNSPVERPPRAGHSEHHPDLGPAAEAAASQASRIWQELEAEEEPVPEGSGPLGPWGPQDWVGPLPRGPTTPDEGCLRYFVLGTVAALVALVLNVFYPLVSQSRWR
binding [3]: binds

B3: NSF1C/p47 (protein, UniProt Q9UNZ2 1-370)
chain: MAAERQEALREFVAVTGAEEDRARFFLESAGWDLQIALASFYEDGGDEDIVTISQATPSSVSRGTAPSDNRVTSFRDLIHDQDEDEEEEEGQRFYAGGSERSGQQIVGPPRKKSPNELVDDLFKGAKEHGAVAVERVTKSPGETSKPRPFAGGGYRLGAAPEEESAYVAGEKRQHSSQDVHVVLKLWKSGFSLDNGELRSYQDPSNAQFLESIRRGEVPAELRRLAHGGQVNLDMEDHRDEDFVKPKGAFKAFTGEGQKLGSTAPQVLSTSSPAQQAENEAKASSSILIDESEPTTNIQIRLADGGRLVQKFNHSHRISDIRLFIVDARPAMAATSFILMTTFPNKELADESQTLKEANLLNAVIVQRLT
binding [4]: binds

The remaining lines, values ahead:

binding [2]: binds
Molecule: USP9X (from UniProt Q93008 1-2554) (enzyme)

binding [1]: no binding | binding [2]: no binding
Molecule: ataxin-3 (from UniProt P54252 1-361) (enzyme)

binding [3]: binds
B1: UBXN1 (protein, UniProt Q04323 1-297)
chain: MAELTALESLIEMGFPRGRAEKALALTGNQGIEAAMDWLMEHEDDPDVDEPLETPLGHILGREPTSSEQGGLEGSGSAAGEGKPALSEEERQEQTKRMLELVAQKQREREEREEREALERERQRRRQGQELSAARQRLQEDEMRRAAEERRREKAEELAARQRVREKIERDKAERAKKYGGSVGSQPPPVAPEPGPVPSSPSQEPPTKREYDQCRIQVRLPDGTSLTQTFRAREQLAAVRLYVELHRGEELGGGQDPVQLLSGFPRRAFSEADMERPLQELGLVPSAVLIVAKKCPS

binding [3]: no binding | binding [4]: no binding
B4: USP13 (enzyme, UniProt Q92995 1-863)
chain: MQRRGALFGMPGGSGGRKMAAGDIGELLVPHMPTIRVPRSGDRVYKNECAFSYDSPNSEGGLYVCMNTFLAFGREHVERHFRKTGQSVYMHLKRHVREKVRGASGGALPKRRNSKIFLDLDTDDDLNSDDYEYEDEAKLVIFPDHYEIALPNIEELPALVTIACDAVLSSKSPYRKQDPDTWENELPVSKYANNLTQLDNGVRIPPSGWKCARCDLRENLWLNLTDGSVLCGKWFFDSSGGNGHALEHYRDMGYPLAVKLGTITPDGADVYSFQEEEPVLDPHLAKHLAHFGIDMLHMHGTENGLQDNDIKLRVSEWEVIQESGTKLKPMYGPGYTGLKNLGNSCYLSSVMQAIFSIPEFQRAYVGNLPRIFDYSPLDPTQDFNTQMTKLGHGLLSGQYSKPPVKSELIEQVMKEEHKPQQNGISPRMFKAFVSKSHPEFSSNRQQDAQEFFLHLVNLVERNRIGSENPSDVFRFLVEERIQCCQTRKVRYTERVDYLMQLPVAMEAATNKDELIAYELTRREAEANRRPLPELVRAKIPFSACLQAFSEPENVDDFWSSALQAKSAGVKTSRFASFPEYLVVQIKKFTFGLDWVPKKFDVSIDMPDLLDINHLRARGLQPGEEELPDISPPIVIPDDSKDRLMNQLIDPSDIDESSVMQLAEMGFPLEACRKAVYFTGNMGAEVAFNWIIVHMEEPDFAEPLTMPGYGGAASAGASVFGASGLDNQPPEEIVAIITSMGFQRNQAIQALRATNNNLERALDWIFSHPEFEEDSDFVIEMENNANANIISEAKPEGPRVKDGSGTYELFAFISHMGTSTMSGHYICHIKKEGRWVIYNDHKVCASERPPKDLGYMYFYRRIPS

binding [5]: no binding (tested: 100 nM)
B5: VCPIP1 ΔUBX-L (aa 1-743) (domain or fragment, UniProt Q96JH7 1-743)
chain: MSQPPPPPPPLPPPPPPPEAPQTPSSLASAAASGGLLKRRDRRILSGSCPDPKCQARLFFPASGSVSIECTECGQRHEQQQLLGVEEVTDPDVVLHNLLRNALLGVTGAPKKNTELVKVMGLSNYHCKLLSPILARYGMDKQTGRAKLLRDMNQGELFDCALLGDRAFLIEPEHVNTVGYGKDRSGSLLYLHDTLEDIKRANKSQECLIPVHVDGDGHCLVHAVSRALVGRELFWHALRENLKQHFQQHLARYQALFHDFIDAAEWEDIINECDPLFVPPEGVPLGLRNIHIFGLANVLHRPIILLDSLSGMRSSGDYSATFLPGLIPAEKCTGKDGHLNKPICIAWSSSGRNHYIPLVGIKGAALPKLPMNLLPKAWGVPQDLIKKYIKLEEDGGCVIGGDRSLQDKYLLRLVAAMEEVFMDKHGIHPSLVADVHQYFYRRTGVIGVQPEEVTAAAKKAVMDNRLHKCLLCGALSELHVPPEWLAPGGKLYNLAKSTHGQLRTDKNYSFPLNNLVCSYDSVKDVLVPDYGMSNLTACNWCHGTSVRKVRGDGSIVYLDGDRTNSRSTGGKCGCGFKHFWDGKEYDNLPEAFPITLEWGGRVVRETVYWFQYESDSSLNSNVYDVAMKLVTKHFPGEFGSEILVQKVVHTILHQTAKKNPDDYTPVNIDGAHAQRVGDVQGQESESQLPTKIILTGQKTKTLHKEELNMSKTERTIQQNITEQASVMQKRKTEKLKQEQKGQP
